Tests used:
Format in all cases: cell-based
BT474 (ER+, HER2++) = assay: Proliferation assay, aromatase expressing BT474 clones; conditions: Homo sapiens, BT-474, 144 h, inhibition of proliferation, androstenedione, 6 days
Protocol: (§1) Human breast cancer cell lines with varying expression of ER and HER2 were engineered to express aromatase. The cell lines were MCF7 (ER+,HER2−), ZR75.1 (ER+,HER2+), BT474 (ER+, HER2++) and SKBR3 (ER−, HER2++).
(§2) Proliferation assays were carried out as follows. The target cell lines listed above were cultured in phenol red-free RPMI 1640 medium containing 10% charcoal stripped foetal calf serum and 10[…]g.ml insulin (DCC medium), with daily changes for 3 days. The cell lines were then seeded in to 12-well plates at an appropriate density (MCF7 1×10^4/well, ZR75.1 2×10^4/well, BT474 2×10^4/well, SKBR3 1×10^4/well). After 24-48 hours, the cell monolayers were treated with increasing concentrations of androstenedione or E2. […] Drug treatments were changed daily over a period of 6 days. Cell number was determined using a Z1 Coulter Counter (Beckman Coulter, UK). With the threshold set at 15 μm diameter, 75% the average 20 μm size of MCF7 cells.

ZR75.1 (ER+,HER2+) = assay: Proliferation assay, aromatase expressing ZR75.1 clones; conditions: Homo sapiens, ZR-75-1, 144 h, inhibition of proliferation, androstenedione, 6 days
Protocol: as §1, §2

MCF7 (ER+,HER2−) = assay: Proliferation assay, aromatase expressing MCF7 clones; conditions: Homo sapiens, MCF7, 144 h, inhibition of proliferation, androstenedione, 6 days
Protocol: as §1, §2

Measured: IC50

CC/C(=C(\c1ccccc1)c1ccc(OCCN(C)C)cc1)c1ccccc1 [Tamoxifen]
10 nM: BT474 (ER+, HER2++) | ZR75.1 (ER+,HER2+) | MCF7 (ER+,HER2−)
